This passage reports binding results from publication PMC9101030, “Myo5b Transports Fibronectin-Containing Vesicles and Facilitates FN1 Secretion from Human Pleural Mesothelial Cells” (International Journal of Molecular Sciences, 2022).

Protein sequences, listed by entry. Tags and fused reporters are not part of them. Residues count along the entry.
UniProt P02751, residues 32-2477: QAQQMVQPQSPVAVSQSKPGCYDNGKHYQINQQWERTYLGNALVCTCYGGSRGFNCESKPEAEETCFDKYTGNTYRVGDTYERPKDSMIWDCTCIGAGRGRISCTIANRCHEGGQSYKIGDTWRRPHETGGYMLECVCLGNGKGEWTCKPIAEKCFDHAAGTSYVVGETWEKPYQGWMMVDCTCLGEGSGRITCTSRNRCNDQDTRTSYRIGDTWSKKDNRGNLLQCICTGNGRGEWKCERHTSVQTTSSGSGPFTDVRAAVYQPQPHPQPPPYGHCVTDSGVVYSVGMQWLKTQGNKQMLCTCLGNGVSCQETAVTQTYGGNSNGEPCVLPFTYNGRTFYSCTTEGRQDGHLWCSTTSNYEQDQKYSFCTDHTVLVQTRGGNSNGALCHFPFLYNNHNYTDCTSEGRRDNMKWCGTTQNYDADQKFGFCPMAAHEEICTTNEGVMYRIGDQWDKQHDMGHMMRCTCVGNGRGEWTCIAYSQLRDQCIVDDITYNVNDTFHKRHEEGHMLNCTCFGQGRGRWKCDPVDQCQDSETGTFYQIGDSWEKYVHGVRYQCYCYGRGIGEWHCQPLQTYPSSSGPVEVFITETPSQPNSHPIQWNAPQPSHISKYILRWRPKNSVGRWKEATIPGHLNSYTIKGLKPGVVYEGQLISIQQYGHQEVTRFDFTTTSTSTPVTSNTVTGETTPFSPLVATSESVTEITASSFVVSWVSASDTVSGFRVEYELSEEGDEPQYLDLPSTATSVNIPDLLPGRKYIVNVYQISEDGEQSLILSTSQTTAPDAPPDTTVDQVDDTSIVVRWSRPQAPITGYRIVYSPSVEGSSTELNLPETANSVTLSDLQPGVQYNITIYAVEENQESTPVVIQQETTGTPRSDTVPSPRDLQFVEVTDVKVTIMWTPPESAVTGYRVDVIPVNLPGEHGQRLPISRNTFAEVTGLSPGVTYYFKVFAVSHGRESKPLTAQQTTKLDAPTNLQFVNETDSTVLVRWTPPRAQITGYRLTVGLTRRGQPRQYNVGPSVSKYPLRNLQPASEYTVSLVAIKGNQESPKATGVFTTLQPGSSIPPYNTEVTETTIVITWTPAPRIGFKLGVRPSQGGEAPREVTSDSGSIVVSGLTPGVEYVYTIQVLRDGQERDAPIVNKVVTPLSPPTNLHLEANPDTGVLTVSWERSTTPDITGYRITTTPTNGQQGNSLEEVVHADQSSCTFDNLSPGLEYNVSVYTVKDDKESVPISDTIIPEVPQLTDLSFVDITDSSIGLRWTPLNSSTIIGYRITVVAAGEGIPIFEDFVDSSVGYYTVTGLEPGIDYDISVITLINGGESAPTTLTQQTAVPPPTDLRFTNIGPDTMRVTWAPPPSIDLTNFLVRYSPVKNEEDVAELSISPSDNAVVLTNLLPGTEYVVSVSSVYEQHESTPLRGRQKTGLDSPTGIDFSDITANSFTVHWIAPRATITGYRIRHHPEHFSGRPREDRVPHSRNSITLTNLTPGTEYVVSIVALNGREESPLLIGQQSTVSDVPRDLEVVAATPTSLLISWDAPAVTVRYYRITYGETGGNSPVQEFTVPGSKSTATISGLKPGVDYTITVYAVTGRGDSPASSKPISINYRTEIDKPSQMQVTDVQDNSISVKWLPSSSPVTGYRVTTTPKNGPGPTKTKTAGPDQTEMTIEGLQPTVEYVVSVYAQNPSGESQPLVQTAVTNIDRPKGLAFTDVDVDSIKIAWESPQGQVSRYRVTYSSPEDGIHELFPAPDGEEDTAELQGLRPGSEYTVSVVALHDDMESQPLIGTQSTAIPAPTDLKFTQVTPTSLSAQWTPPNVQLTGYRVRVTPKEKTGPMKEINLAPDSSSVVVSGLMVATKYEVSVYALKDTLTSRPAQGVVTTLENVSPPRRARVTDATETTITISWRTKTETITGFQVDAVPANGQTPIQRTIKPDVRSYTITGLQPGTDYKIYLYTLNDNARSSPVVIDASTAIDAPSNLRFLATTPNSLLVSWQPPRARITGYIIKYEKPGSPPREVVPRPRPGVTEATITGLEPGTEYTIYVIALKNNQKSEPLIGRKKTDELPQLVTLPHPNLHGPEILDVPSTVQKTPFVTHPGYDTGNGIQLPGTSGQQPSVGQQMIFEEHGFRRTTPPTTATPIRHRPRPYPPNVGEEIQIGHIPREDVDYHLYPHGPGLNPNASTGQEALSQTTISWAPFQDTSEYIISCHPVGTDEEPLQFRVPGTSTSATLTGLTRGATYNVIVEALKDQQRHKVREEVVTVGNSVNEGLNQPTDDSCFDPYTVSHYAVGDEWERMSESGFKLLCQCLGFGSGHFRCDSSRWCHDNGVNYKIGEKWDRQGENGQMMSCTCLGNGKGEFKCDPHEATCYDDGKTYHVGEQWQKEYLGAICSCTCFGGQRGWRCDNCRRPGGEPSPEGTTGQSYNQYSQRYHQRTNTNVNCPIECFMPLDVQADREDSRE
UniProt Q9ULV0: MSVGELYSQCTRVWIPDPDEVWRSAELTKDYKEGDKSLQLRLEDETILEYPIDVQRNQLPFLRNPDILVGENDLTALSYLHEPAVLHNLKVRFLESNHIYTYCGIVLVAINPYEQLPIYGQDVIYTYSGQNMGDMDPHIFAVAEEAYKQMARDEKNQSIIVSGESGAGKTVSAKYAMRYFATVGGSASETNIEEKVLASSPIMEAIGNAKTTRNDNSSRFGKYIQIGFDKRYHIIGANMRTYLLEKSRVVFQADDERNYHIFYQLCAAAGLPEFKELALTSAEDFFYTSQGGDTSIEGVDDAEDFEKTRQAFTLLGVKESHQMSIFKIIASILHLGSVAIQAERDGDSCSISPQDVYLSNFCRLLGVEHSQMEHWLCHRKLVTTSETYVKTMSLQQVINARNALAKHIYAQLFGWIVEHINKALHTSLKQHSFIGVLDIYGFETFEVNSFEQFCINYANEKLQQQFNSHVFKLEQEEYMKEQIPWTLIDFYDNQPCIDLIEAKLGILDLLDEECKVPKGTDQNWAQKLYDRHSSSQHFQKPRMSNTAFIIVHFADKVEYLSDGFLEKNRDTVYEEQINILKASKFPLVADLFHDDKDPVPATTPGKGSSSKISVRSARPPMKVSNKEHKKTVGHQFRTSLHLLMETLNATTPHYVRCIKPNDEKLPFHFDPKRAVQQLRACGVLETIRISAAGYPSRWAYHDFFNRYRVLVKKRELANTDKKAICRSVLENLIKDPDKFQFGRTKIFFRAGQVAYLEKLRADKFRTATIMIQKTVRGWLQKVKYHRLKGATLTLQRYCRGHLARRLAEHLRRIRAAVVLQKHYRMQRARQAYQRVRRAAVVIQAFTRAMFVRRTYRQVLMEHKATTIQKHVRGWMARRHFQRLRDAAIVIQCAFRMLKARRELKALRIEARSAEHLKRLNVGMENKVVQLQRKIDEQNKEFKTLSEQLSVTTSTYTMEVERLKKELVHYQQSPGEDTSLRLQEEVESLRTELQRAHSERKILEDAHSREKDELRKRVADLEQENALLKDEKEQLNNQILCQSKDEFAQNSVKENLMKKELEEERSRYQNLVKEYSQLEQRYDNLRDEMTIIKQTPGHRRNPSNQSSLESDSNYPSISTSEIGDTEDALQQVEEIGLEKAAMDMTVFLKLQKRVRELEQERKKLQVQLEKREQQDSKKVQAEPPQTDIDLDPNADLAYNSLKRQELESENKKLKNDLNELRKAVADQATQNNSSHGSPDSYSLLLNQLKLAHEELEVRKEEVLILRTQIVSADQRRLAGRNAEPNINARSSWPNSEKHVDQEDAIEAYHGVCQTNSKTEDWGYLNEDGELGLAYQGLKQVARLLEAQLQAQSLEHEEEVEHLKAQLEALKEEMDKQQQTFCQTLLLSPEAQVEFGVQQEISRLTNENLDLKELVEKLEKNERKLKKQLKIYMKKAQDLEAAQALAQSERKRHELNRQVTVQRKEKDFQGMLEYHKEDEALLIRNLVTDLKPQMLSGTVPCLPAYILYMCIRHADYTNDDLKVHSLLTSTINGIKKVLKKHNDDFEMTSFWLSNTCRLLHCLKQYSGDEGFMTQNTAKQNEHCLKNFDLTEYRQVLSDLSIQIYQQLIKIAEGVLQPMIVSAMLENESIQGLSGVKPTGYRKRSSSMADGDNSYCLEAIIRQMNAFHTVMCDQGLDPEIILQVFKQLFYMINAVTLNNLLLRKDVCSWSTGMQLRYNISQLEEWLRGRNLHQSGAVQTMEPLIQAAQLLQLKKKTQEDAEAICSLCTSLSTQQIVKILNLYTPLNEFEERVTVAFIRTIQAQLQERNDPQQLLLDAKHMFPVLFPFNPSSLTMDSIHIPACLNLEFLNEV

This assay concerns the target fibronectin (FN1), endogenous in human pleural mesothelial cells (human (endogenous in HPMCs)) (UniProt P02751). In words: proximity ligation; Duolink In situ Red kit on fixed, permeabilised HPMCs treated with PBS or TGF-β (5 ng/mL); primary antibodies to the two proteins or to the V5 tag, anti-mouse MINUS and anti-rabbit PLUS probes; confocal imaging.

No constants are given. Whether binding was seen depends on the method and setting. In cells and extracts the contact can be indirect. Some binding calls cover weakened binding; strength is not graded here.

With “myosin 5b (Myo5b), endogenous in human pleural mesothelial cells (from UniProt Q9ULV0 1-1848)”, the binding entry is “binds”.
